Assay results from patent publication US9657062B2 (Zealand Pharma A/S, priority 2012, dated 2017).

Test: general procedure: Fmoc solid-phase peptide synthesis; TentaGel S PHB Fmoc-Arg(Pbf); HATU or COMU with DIPEA
Details: whole synthesis

Row | Substance | crude mass (scale 0.940 mmol) [mg] | isolated mass (scale 0.940 mmol) | crude mass (scale 0.326 mmol) [mg] | isolated mass (scale 0.326 mmol)
1 | H-GSSFLSPEHQRVQQRKESKKPPAKLQPR-OH | 600 | approx. 61 mg | – | –
2 | H-GS-S(O-octanoyl)-FLSPEHQRVQQRKESKKPPAKLQPR-OH | – | – | 450 | approx. 91 mg
